# Data taken from PubChem BioAssay AID588590 (National Center for Advancing Translational Sciences (NCATS), 2011).
# Protein sequences, listed by entry. Tags and fused reporters are not part of them. Lines headed by an entry give the natural chain unless they say otherwise; changes in a name come on top.
# UniProt Q9UNA4: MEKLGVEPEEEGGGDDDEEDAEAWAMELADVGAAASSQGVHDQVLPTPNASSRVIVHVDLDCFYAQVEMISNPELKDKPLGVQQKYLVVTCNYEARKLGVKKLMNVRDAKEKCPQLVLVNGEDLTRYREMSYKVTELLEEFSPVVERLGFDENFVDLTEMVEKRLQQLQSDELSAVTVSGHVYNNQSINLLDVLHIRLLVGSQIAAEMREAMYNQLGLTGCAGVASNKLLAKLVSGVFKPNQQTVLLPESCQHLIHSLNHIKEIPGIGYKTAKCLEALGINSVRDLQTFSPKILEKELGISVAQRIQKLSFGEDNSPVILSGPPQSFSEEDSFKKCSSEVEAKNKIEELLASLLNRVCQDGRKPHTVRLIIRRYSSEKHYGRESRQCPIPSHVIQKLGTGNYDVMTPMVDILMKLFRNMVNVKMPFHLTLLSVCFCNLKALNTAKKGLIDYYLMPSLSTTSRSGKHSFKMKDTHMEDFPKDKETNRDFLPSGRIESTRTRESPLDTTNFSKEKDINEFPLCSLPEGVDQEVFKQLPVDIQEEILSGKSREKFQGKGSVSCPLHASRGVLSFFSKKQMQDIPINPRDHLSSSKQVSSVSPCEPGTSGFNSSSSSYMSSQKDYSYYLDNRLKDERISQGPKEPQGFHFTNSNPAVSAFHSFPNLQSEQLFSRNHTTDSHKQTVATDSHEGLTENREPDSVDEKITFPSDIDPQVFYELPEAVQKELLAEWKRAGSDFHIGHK
# About 4,000 (1%) of roughly 390,000 compounds were called active. The inconclusive results got no clear call from the source; some entries with a clear call stand among them for comparison. Calls follow the shape of the dose curve; as a rule, active = well fitted inhibition curve with a large enough effect; inconclusive = small, poorly fitted or top-dose-only effect, or another doubt; inactive = no such curve, though single readings can be large or run the other way. Potencies of inconclusive entries are doubtful fits and often do not repeat.
# Target: DNA polymerase iota (Homo sapiens) (UniProt Q9UNA4)
# Assay: qHTS for Inhibitors of Polymerase Iota
# Conditions: Pol iota fluorescent replication assay, 10 min; series mostly up to 115 µM
# Procedure, shortened: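 Pol iota at 10 nM preincubated 15 min with compounds at room temperature; reaction started with fluorescent substrate, 50 nM final. Fluorescence read kinetically at 0 and 10 min; buffer-only wells as negative control.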
# Potency is read from the fitted curve at half-maximal effect.
row,Structure (SMILES),Potency
1,Cc1ccc(OCC(=O)N2CCC3(CC2)CC(=O)c2ccccc2O3)cc1,"inconclusive: 89.1 µM [inhibitor, single point]"
2,O=C(O)C1CSC(c2ccc3c(c2)OCO3)N1 (stereo unspecified),"inconclusive: 17.8 µM [inhibitor, partial curve, poor fit]"
3,O=C1CSc2nc3ccccc3n21,inactive
4,CC(=O)OCC1CCCC2=C(C)C(=O)CCC21COC(C)=O (stereo unspecified),"inconclusive: 89.1 µM [inhibitor, single point]"
5,CCCCOC(=O)COc1ccc(Cl)cc1Cl,inactive
6,COc1cccc(N2C(=O)CC(c3c[nH]c4ccccc34)C2=O)c1 (stereo unspecified),"inconclusive: 44.7 µM [inhibitor, single point]"
7,CCOC(=O)c1c(NC(=O)c2cc(-c3ccc(Cl)s3)nc3ccccc23)sc(C(N)=O)c1C,"inconclusive: 3.16 µM [inhibitor, partial curve, poor fit]"
8,CCC1Nc2ncnc(N3CCN(c4ccccc4)CC3)c2N(Cc2ccc(Br)cc2)C1=O (stereo unspecified),"inconclusive: 14.1 µM [inhibitor, full curve, poor fit]"
9,O=C(Cc1ccc(-n2cccc2)cc1)NC1CCCCCC1,"inconclusive: 25.1 µM [inhibitor, full curve, poor fit]"
10,CN(C)CCCN(C(=O)CCS(=O)(=O)c1ccccc1)c1nc2cc3c(cc2s1)OCO3,"inconclusive: 14.1 µM [inhibitor, partial curve, poor fit]"
11,Cc1cccc(NC(=O)CSc2nc3ccc(NC(=O)c4ccco4)cc3s2)c1,"inconclusive: 89.1 µM [inhibitor, single point]"
12,Cc1ccc(-c2nc3cc(C(C)C)ccc3o2)cc1NC(=O)c1cccs1,inactive
13,COC1=CC(=O)C(O)=C(CCCCCCC/C=C/CCCCCCCC2=C(O)C(=O)C=C(OC)C2=O)C1=O,active: 7.94 µM
14,O=C(Cc1cccs1)N1CCN(S(=O)(=O)c2ccc(Cl)c(C(F)(F)F)c2)CC1,"inconclusive: 0.631 µM [inhibitor, full curve, poor fit]"
15,CCCCOc1ccc(CNC(=O)C2CCN(c3nnc(-n4cccc4CNc4ccc(C)cc4)s3)CC2)cc1,"inconclusive: 31.6 µM [inhibitor, partial curve]"
16,CCOC(=O)C1=CSC2=NS(=O)(=O)CCN12,"inconclusive: 89.1 µM [inhibitor, single point]"
17,N/C(=N\OC(=O)Cc1cccs1)c1ccccc1,inactive
18,CC(C)[C@H](NC(=O)N1c2ccccc2NC(=O)[C@@H]1C(C)C)C(=O)N[C@@H](Cc1c[nH]c2ccccc12)C(=O)O,inactive
19,CCc1ccc(NC(=O)CSc2nc3n[nH]c(C)c3c(=N)n2-c2ccccc2C)cc1,active: 89.1 µM
20,O=C(COC(=O)c1ccc2ncsc2c1)NCc1ccc(F)cc1,"inconclusive: 12.6 µM [inhibitor, partial curve, poor fit]"
21,Cc1cc(C)n2nc(SCC(=O)Nc3ccccc3)nc2n1,"inconclusive: 4.47 µM [inhibitor, partial curve, poor fit]"

# A draw from above in order of molecular weight, smallest number first:
row,Structure (SMILES),Potency
21,Cc1cc(C)n2nc(SCC(=O)Nc3ccccc3)nc2n1,"inconclusive: 4.47 µM [inhibitor, partial curve, poor fit]"
6,COc1cccc(N2C(=O)CC(c3c[nH]c4ccccc34)C2=O)c1 (stereo unspecified),"inconclusive: 44.7 µM [inhibitor, single point]"
20,O=C(COC(=O)c1ccc2ncsc2c1)NCc1ccc(F)cc1,"inconclusive: 12.6 µM [inhibitor, partial curve, poor fit]"

# Next results:

row,Structure (SMILES),Potency
1,O=C1CC(c2ccccc2C(F)(F)F)c2c(c3ccccc3[nH]c2=O)O1 (stereo unspecified),inactive
2,Cc1cc[n+](-c2[nH]c(=O)sc2/C=N/NC([S-])=Nc2ccccc2)cc1C,"inconclusive: 14.1 µM [inhibitor, full curve]"
3,N#Cc1c(NC(=O)c2cc3nc(-c4ccc(Br)cc4)cc(C(F)(F)F)n3n2)sc2c1CCCC2,inactive
4,CCOC(=O)c1c2ccccc2[n+]([O-])n1[C@@H](C)C(N)=O,"inconclusive: 39.8 µM [inhibitor, partial curve, poor fit]"
5,O=C(O)c1cc([N+](=O)[O-])cc2c1nnn2O,"inconclusive: 39.8 µM [inhibitor, single point]"
6,O=C(c1ccco1)[C@@H]1[C@@H]2C(=O)N(c3ccc(Br)cc3)C(=O)[C@@H]2C2c3ccccc3C=CN21 (stereo partly specified),"inconclusive: 11.2 µM [inhibitor, partial curve, poor fit]"
7,CC(C)CCNC(=O)C1CCC(Cn2c(=O)c3sccc3n(CC(=O)NC(C)C)c2=O)CC1 (stereo unspecified),inactive
8,COc1cc(C=NNC(=O)c2ccccc2NS(=O)(=O)c2cccs2)cc(OC)c1O,"inconclusive: 79.4 µM [inhibitor, partial curve, poor fit]"
9,CC(=O)C1=C(C)Nc2ncnn2C1c1ccc(Br)cc1 (stereo unspecified),inactive
10,COc1cc(C(=O)NCC2CCCO2)cc(OC)c1OC (stereo unspecified),"inconclusive: 89.1 µM [inhibitor, single point]"
11,Cc1cc(C)nc(NS(=O)(=O)c2ccc(-n3cccc3)cc2)n1,"inconclusive: 14.1 µM [inhibitor, partial curve, poor fit]"
12,CCCC(=Nc1ccc(N)cc1)C1=C(O)C(C(=O)OC)C(C)(C)CC1=O (stereo unspecified),"inconclusive: 5.62 µM [inhibitor, full curve, poor fit]"
13,O=C(COC(=O)Cn1cnc2ccccc21)Nc1ccc2c(c1)C(=O)c1ccccc1C2=O,"inconclusive: 11.2 µM [inhibitor, partial curve, poor fit]"
14,C=Cc1ccc2c(c1)OCCOCCOCCOCCOCCO2,"inconclusive: 17.8 µM [inhibitor, full curve, poor fit]"
15,CC1CCc2c(sc3nc(C(C)(C)C)nc(N4CCN(C(=O)CCl)CC4)c23)C1 (stereo unspecified),"inconclusive: 25.1 µM [inhibitor, partial curve, poor fit]"
16,CC1CCC(NC(=O)CCN2C(=O)C3C4C=CC(C4)C3C2=O)CC1 (stereo unspecified),"inconclusive: 50.1 µM [inhibitor, partial curve, poor fit]"
17,CCCCOc1ccc(CNC(=O)CCCN2C(=O)CSc3c2c(C)nn3-c2ccccc2)cc1,"inconclusive: 89.1 µM [inhibitor, single point]"
18,Cc1ccc2c(=O)cc(C(=O)Nc3ccc(S(=O)(=O)N4CCCCCC4)cc3)oc2c1C,"inconclusive: 79.4 µM [inhibitor, single point]"
19,CCc1ccc(CNC(=O)CN2C(=O)c3cccnc3Oc3ccc(C)cc32)cc1,inactive
20,O=C(Oc1c(CN2CCOCC2)cc(Cl)c2cccnc12)c1ccccc1F,inactive
